Test results: paper PMC3475689, “Leishmania donovani Argininosuccinate Synthase Is an Active Enzyme Associated with Parasite Pathogenesis” (PLoS Neglected Tropical Diseases, 2012)
No constants are given. Whether binding was seen depends on the method and setting. In cells and extracts the contact can be indirect. Binding calls can cover weak binding; strength is not graded here. One block for each molecule: values may come before it.

Experiments:
[1] = molecular target: T1, LdPEX5, endogenous peroxin 5 of Leishmania donovani (Leishmania donovani (endogenous in Ld1S2D parasites)); assay: co-IP; immunoprecipitation with anti-LdPEX5 antibody (preimmune sera as control) from lysates of Ld1S2D axenic amastigotes or of V5His-LdASS^WT over expressing parasites; blot with anti-LdASS
T1 sequence: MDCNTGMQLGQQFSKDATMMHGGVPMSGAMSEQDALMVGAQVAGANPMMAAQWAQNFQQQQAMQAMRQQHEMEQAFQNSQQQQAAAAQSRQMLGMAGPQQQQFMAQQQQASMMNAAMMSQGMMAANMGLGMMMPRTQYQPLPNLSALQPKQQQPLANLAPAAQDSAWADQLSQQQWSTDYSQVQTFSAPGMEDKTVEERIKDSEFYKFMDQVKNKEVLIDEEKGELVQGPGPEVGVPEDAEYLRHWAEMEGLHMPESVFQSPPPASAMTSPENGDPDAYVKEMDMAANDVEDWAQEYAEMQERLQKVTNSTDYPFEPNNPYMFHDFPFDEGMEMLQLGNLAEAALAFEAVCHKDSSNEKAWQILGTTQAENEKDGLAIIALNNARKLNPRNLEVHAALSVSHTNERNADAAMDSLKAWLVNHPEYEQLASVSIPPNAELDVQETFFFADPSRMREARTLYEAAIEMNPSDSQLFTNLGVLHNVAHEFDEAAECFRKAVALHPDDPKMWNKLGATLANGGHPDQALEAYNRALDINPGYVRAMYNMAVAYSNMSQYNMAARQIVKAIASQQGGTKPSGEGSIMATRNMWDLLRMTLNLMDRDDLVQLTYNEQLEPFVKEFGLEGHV

[2] = molecular target: V5His-LdASS^WT over expressed in Leishmania donovani parasites (Leishmania donovani); assay: pull-down; nickel agarose pull-down from lysate of V5His-LdASS^WT over expressing parasites; blot with anti-LdPEX5 or anti-LdASS

binding [1]: binds
Molecule: V5His-LdASS^WT over expressed in Leishmania donovani parasites (enzyme)

binding [1]: binds
Molecule: LdASS, endogenous Leishmania donovani argininosuccinate synthase (enzyme)

binding [2]: binds
B1: LdPEX5, endogenous peroxin 5 of Leishmania donovani (receptor, UniProt A0A3S7X906 1-625)
chain: T1 sequence
